Reference: US20060120980A1, “Novel dermatological composition using bio-activating organocatalysts” (priority 2004, published 2006)
At least one structure is not confirmed: it was looked up by name or label, or the drawing left a doubt.

How the values were obtained:
[1] = system: papilla-corium layer of skin; assay: bioreactive skin test (pin-head like projections, activation of the papilla-corium layer); assay type: in vivo; details: Table 1A; 5 % by weight
[2] = system: C3H mice; assay: C3H mouse model of hair growth; assay type: in vivo

For `Nc1cc(N2CCCCC2)nc(N)[n+]1[O-]` [minoxidil], the Bioreactivity [1] was “± (very slight)”, the “visual hair growth on the treated area” value ([2]; 2 weeks after start of treatment, once daily topical, clipped dorsal area) was “Neither in the control nor the Minoxidil treated mice was visual hair growth seen” and the “hair follicles in anagen phase, Fontana-Mason stained skin sections” value ([2]; histological analysis) was “not in the control or in the Minoxidil treated mice”.
